# PubChem BioAssay AID1224830 | NIAID | 2016
# Assay: 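Regulators of TLR4 signalling towards TNF-alpha in macrophage-like cells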 (primary screen)
# Cell system: human THP-1 monocytic leukaemia cells, TNF dual-luciferase reporter clone, PMA-differentiated to macrophage-like cells
# Reagents: siRNA pool against human genes, 50 nM
# Duration: LPS for 4 h, given about 3 days after siRNA transfection
# Treatment: bacterial LPS (TLR4 ligand), 10 ng/ml
# Detection: 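TNF firefly reporter luminescence divided by renilla, normalised to the plate median, then turned into a robust z-score for each replicate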
# Reading the numbers: TNF reporter robust z-score: higher = stronger TNF reporter response to LPS
# Call rule: 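a well is active when its z-score exceeds 2.8 or falls below -1.5; control wells carry no call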
# The whole screen tested about 18,000 reagents; below is a part drawn at random. About 2,900 of all reagents (16%) count as active. 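Calls are made per well; low scores hint the gene aids the LPS response, high scores that it dampens it.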 Repeated entries: four replicate wells of each siRNA pool.
target gene,TNF reporter robust z-score,Call
BMP10,0.52,inactive
BMP10,2.29,inactive
BMP10,1.21,inactive
BMP10,1.28,inactive
RND2,-1.73,active
RND2,-1.69,active
RND2,-1.78,active
RND2,-1.54,active
H1-3,-0.86,inactive
H1-3,-1.21,inactive
H1-3,-1.39,inactive
H1-3,-1.31,inactive
IL18RAP,0.22,inactive
IL18RAP,1.74,inactive
IL18RAP,1.33,inactive
IL18RAP,1.82,inactive
TMEM223,0.09,inactive
TMEM223,1.47,inactive
TMEM223,0.82,inactive
TMEM223,0.75,inactive

Continued (3 carried over from the part before).
target gene,TNF reporter robust z-score,Call
TMEM223,1.47,inactive
TMEM223,0.82,inactive
TMEM223,0.75,inactive
CCNT1,1.66,inactive
CCNT1,1.99,inactive
CCNT1,0.02,inactive
CCNT1,1.94,inactive
IRX1,2.48,inactive
IRX1,2.89,active
IRX1,0.84,inactive
IRX1,-0.11,inactive
FAXDC2,-0.58,inactive
FAXDC2,-0.28,inactive
FAXDC2,-0.27,inactive
FAXDC2,0.09,inactive
OR51A2,-0.73,inactive
OR51A2,-0.92,inactive
OR51A2,-0.69,inactive
OR51A2,-1.09,inactive
H2BC18,4.16,active
H2BC18,2.56,inactive
H2BC18,0.92,inactive
H2BC18,3.56,active
REST,0.75,inactive
REST,0.76,inactive
REST,0.56,inactive
REST,-0.15,inactive
TIA1,1.77,inactive
TIA1,-0.18,inactive
TIA1,0.85,inactive
TIA1,3.38,active
